# Primary screen of a compound library

Sequences of proteins named here, by UniProt entry; tags and fusion partners are left off.
UniProt E9BF75, entry or part of it: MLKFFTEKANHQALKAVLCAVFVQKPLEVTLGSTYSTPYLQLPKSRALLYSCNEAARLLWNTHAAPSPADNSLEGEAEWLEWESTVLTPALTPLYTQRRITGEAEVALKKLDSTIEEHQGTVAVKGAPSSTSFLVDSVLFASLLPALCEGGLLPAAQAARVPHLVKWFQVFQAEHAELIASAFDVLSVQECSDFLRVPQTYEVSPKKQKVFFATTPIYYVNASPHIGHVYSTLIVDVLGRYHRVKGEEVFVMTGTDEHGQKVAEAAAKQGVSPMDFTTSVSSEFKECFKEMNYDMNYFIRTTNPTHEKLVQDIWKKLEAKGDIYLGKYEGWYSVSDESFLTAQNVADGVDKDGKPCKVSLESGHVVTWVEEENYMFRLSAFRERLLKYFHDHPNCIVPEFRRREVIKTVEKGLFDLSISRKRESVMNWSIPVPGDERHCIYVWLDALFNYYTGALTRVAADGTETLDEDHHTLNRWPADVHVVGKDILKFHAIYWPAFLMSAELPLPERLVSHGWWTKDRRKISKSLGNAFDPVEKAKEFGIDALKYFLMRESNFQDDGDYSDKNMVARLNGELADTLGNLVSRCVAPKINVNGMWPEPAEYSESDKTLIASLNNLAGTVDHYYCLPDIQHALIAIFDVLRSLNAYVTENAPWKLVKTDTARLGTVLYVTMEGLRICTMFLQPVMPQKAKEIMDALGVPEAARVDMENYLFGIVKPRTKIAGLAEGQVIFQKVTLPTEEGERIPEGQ

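Primary screen of methionyl-tRNA synthetase; the read-out is not stated. Target: Methionyl-tRNA synthetase (putative), Leishmania donovani (UniProt E9BF75). The test concentration is not given. The values are filed as inhibition. Size under these conditions: about 68,000 compounds, about 24 of them at 50% or above in at least one test.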

All values are in %.
The record does not define 0% and 100%; most values in the screen are far below 50% and negative numbers occur (in some assays of this library far below -100).
Compounds were drawn at random from those tested, without regard to their results.

| structure | Inhibition |
|---|---|
| `CN(C)C(C(=O)N1CCC(c2ncc[nH]2)CC1)c1ccc2c(c1)OCO2` (centres unmarked) | 14.09 |
| `O=C(CCn1ccnc1)N1C[C@@H](O)[C@H](Oc2cccc(F)c2)C1` | 7.717 |
| `CSCCC(NC(=O)c1ccccc1)C(=O)N(C)Cc1ccsc1` (centres unmarked) | 9.218 |
| `COCC(=O)N1CCc2ccccc2C12CCNCC2` | 4.372 |
| `COC[C@]1(O)CCN(C2CCN(c3ccc(F)c(F)c3)CC2)CC1(C)C` | -3.125 |
| `CS(=O)(=O)CCNC(=O)N1CC2(CCCC2)c2ccccc21` | 16.28 |
| `Cc1cc(C(=O)Nc2nnn[nH]2)ccc1I` | 10.53 |
| `O=C1CCC2(CCCN(C(=O)Cc3cccnc3)C2)N1` (centres unmarked) | 13.89 |
| `Cn1ncc(C(=O)N2CCN(CCS(C)(=O)=O)CC2)c1Cl` | 4.774 |
| `Brc1ccc(C2(NCc3noc(C4CC4)n3)CCC2)cc1` | 6.407 |
| `Cc1nc(CN2CCCN(Cc3nc4c(F)cccc4[nH]3)CC2)no1` | 9.309 |
| `COc1ccccc1-c1cc(C(=O)N(C)C)nc2c1cnn2C` | 10.29 |
| `COc1c(C2CCCN2C(=O)c2cccc(C)n2)c(C)nn1C` (centres unmarked) | 12.82 |
| `CC(C)C(CCO)NC(=O)Nc1cc(F)ccc1-n1cccn1` (centres unmarked) | 11.08 |
| `Cc1nc(CN2CCCN(CC(=O)Nc3ccncc3)CC2)no1` | 5.842 |
| `c1cncc(COCC2CNCc3nccn3C2)c1` (centres unmarked) | 5.435 |
| `CO[C@@H]1CN(Cc2scnc2C)[C@@H]2CCCO[C@@H]21` | 18.22 |
| `CCN(CC)C(=O)[C@@H]1C[C@H](n2cc(-c3cccc(OC)c3)nn2)CN1` | 2.703 |
| `CN1CCC(N2CCOC[C@H]2c2nc(-c3ccncc3)c[nH]2)CC1` | 4.407 |
| `CCC(=O)Nc1ccc(C(C)NC(=O)COC)cc1` (centres unmarked) | 0.6135 |
| `COc1ccc(-c2csc3c2c(N)nc(=O)n3CCCN(C)C)cc1` | 14.85 |
| `CC(C)c1cc(NC(=O)c2cccnc2)[nH]n1` | 17.38 |
| `O=C(NCCCN1CCN(c2ncccn2)CC1)NCC1CCCO1` (centres unmarked) | 6.41 |
| `Cc1cnn(CCNCc2c(C)nn(CCO)c2C)c1` | 105 |
| `CC(Sc1nnnn1C1CCOCC1)C(=O)NC1CCCCC1` (centres unmarked) | 15.61 |
| `CC(=O)N1CCCC1c1csc(Nc2cnccn2)n1` (centres unmarked) | 17.13 |
| `CCS(=O)(=O)c1ccc2oc([C@H]3CCN(Cc4ccccn4)C3)nc2c1` | 8.271 |
| `Cn1cnnc1-c1ccnc(NCc2ccc3c(c2)OCCO3)c1` | 17.47 |
| `COCCC1CCCCN1Cc1nc(Cc2cccc(F)c2)no1` (centres unmarked) | 5.479 |
| `Cn1cccc1C(=O)N1C[C@H]2CN(CCN3CCCC3)C(=O)[C@H]2C1` | 11.76 |
| `CN(C)C(=O)c1n[nH]c2c1CN(CC1CCCCC1)C2` | 10.93 |
| `O=C(Nc1nc2c(s1)CN(S(=O)(=O)C1CC1)CC2)c1ccccn1` | 8.333 |
| `OC[C@H]1CN(Cc2c(Cl)cncc2Cl)C[C@H]1CN1CCCC1` | 7.904 |
| `CC(=O)N1CCC(Oc2ccc(C#N)cn2)CC1` | 9.36 |
| `Cc1[nH]nc2ncc(C(=O)N3CCN(CC(C)C)CC3)cc12` | 15.75 |
| `Cc1cccc(S(=O)(=O)N2CC[C@H]3CO[C@H](CN(C)C)[C@H]3C2)c1` | 5.333 |
| `COc1ccccc1CN1C(=O)O[C@@H]2CN(c3nccs3)C[C@@H]21` | 11.71 |
| `COCCN1CC(=O)N2CC[C@@H](O)C[C@H]2C1=O` | 6.349 |
| `FC(F)(F)c1cc(C2CCCN(Cc3ccncc3)C2)n[nH]1` (centres unmarked) | 9.756 |
| `FC(F)(F)c1ccnc(N2CCCOCC2)c1` | 8.871 |
| `COC(=O)C1CCCCN1C(=O)c1ccccc1F` (centres unmarked) | 11.23 |
| `CCc1ocnc1C(=O)N1CCCC1c1noc(C2CC2)n1` (centres unmarked) | 7.895 |
| `CCC[C@H]1CN(Cc2ccc(N(C)C)nc2)C[C@@H]1NS(=O)(=O)CC` | 11.5 |
| `Cc1cccc(C(C)CNC(=O)N2CCC3(C2)OCCO3)c1` (centres unmarked) | 15.49 |
| `COc1ccc(CN2CC[C@H]3CO[C@H](CNC(=O)N(C)C)[C@H]3C2)cc1` | 12.03 |
| `CC(=O)NCc1cc2n(n1)CCN(Cc1ccccc1OC(F)(F)F)C2` | 13.31 |
| `CN1CCCCC12Cc1ccccc1CN(C(=O)C1CCCC1)C2` (centres unmarked) | 14.29 |
| `c1ccc(CN2CCCn3nnc(CNc4ncccn4)c3C2)nc1` | 18.56 |

Once more, the final 3:

For CC(=O)NCc1cc2n(n1)CCN(Cc1ccccc1OC(F)(F)F)C2 the result was 13.31%.
For CN1CCCCC12Cc1ccccc1CN(C(=O)C1CCCC1)C2 (centres unmarked) the result was 14.29%.
For c1ccc(CN2CCCn3nnc(CNc4ncccn4)c3C2)nc1 the result was 18.56%.

From ChEMBL document CHEMBL3988442, “University of Dundee, Small-Polar-MMV Screening Library” (2021).